16 molecules from PMC10879859 can be followed below.

The chains behind the UniProt entries cited, without tags or fusion partners. Where a name states a change or a piece, a line headed by the entry shows the natural chain unless it says otherwise. Residues count along the entry.
UniProt P29144: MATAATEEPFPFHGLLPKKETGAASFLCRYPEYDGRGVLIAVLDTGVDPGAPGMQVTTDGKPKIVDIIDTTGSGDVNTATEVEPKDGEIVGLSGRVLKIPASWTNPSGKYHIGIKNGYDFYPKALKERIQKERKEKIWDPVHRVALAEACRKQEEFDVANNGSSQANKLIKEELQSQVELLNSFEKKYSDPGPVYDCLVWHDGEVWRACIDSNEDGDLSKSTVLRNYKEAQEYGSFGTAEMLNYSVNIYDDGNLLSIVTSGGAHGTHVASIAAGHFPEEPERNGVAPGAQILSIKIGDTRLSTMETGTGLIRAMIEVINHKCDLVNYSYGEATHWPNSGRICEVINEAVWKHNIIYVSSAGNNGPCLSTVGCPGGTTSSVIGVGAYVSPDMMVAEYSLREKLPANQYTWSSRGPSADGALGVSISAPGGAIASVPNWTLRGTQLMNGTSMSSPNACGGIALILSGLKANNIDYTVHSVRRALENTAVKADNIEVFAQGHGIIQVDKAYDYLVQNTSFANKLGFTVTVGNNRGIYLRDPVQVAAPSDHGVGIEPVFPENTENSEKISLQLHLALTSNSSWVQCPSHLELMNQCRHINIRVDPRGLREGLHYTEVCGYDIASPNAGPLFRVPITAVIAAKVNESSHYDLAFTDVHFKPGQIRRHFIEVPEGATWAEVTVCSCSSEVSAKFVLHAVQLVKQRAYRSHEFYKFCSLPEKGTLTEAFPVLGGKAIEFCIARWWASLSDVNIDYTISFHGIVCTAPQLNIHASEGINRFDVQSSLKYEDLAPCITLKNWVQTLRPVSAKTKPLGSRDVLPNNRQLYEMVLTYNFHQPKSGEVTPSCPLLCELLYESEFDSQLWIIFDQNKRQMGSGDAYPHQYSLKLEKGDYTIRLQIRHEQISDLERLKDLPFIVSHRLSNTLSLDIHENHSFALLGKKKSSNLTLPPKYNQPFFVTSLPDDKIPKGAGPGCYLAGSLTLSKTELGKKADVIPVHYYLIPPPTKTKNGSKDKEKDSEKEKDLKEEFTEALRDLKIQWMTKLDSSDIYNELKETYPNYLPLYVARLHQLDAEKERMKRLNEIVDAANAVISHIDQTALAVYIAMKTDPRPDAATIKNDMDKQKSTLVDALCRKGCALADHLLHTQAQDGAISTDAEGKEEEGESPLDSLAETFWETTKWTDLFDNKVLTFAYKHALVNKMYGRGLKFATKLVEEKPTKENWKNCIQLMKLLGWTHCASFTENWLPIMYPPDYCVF
truncated TPP2 mutant with deletion of its conserved C domain (AA 508-1249): residues 1-507 of P29144
UniProt Q64514: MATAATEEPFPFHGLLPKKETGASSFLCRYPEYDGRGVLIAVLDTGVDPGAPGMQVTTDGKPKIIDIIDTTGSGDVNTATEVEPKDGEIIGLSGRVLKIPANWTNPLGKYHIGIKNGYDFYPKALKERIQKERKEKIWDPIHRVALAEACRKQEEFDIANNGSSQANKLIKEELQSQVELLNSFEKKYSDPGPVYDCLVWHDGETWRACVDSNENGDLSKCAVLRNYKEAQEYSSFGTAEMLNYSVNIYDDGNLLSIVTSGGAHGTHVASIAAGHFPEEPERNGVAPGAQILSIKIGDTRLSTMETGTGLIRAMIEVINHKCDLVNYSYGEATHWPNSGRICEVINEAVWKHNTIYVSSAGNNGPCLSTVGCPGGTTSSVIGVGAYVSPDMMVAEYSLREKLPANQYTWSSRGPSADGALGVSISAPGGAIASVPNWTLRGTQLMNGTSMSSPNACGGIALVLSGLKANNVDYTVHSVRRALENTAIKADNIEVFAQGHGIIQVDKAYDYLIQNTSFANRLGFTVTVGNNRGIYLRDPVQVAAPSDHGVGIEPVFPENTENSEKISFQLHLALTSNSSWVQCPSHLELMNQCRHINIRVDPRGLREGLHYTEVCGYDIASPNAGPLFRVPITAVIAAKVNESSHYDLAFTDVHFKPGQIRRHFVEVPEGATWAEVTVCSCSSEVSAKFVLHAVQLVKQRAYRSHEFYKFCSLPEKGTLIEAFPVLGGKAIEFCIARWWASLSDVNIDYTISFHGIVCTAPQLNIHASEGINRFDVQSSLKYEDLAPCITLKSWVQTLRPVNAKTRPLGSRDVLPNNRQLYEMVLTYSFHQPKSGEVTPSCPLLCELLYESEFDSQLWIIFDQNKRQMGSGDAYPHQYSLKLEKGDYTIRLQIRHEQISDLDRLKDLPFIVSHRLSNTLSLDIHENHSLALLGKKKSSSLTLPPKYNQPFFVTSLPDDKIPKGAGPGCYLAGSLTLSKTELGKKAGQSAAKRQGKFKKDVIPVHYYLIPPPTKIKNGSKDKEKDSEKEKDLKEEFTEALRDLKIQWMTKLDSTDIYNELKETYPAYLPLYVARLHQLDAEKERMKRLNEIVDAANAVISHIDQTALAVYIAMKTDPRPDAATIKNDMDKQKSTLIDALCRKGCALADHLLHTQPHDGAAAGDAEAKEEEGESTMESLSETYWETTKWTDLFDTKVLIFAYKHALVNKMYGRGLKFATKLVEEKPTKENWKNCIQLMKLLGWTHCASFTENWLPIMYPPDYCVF
UniProt P18850: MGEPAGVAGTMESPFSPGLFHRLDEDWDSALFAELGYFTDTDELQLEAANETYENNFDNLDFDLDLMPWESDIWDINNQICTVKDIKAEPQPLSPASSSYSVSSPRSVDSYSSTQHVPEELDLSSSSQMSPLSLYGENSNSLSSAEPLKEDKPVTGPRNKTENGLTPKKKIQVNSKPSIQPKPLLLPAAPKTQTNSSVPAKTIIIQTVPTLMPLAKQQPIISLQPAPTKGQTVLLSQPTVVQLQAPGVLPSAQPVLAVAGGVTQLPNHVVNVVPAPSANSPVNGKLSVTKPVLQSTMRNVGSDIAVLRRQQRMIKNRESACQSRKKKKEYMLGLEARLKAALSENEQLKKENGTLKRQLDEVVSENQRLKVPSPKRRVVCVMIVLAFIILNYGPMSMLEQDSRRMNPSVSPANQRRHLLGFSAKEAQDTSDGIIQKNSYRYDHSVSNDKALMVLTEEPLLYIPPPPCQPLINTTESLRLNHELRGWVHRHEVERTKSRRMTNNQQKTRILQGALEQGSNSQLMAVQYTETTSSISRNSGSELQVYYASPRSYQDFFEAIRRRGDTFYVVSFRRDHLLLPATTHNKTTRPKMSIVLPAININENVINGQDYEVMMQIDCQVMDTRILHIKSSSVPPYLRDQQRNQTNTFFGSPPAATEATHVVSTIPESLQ
UniProt O75460, residues 19-977: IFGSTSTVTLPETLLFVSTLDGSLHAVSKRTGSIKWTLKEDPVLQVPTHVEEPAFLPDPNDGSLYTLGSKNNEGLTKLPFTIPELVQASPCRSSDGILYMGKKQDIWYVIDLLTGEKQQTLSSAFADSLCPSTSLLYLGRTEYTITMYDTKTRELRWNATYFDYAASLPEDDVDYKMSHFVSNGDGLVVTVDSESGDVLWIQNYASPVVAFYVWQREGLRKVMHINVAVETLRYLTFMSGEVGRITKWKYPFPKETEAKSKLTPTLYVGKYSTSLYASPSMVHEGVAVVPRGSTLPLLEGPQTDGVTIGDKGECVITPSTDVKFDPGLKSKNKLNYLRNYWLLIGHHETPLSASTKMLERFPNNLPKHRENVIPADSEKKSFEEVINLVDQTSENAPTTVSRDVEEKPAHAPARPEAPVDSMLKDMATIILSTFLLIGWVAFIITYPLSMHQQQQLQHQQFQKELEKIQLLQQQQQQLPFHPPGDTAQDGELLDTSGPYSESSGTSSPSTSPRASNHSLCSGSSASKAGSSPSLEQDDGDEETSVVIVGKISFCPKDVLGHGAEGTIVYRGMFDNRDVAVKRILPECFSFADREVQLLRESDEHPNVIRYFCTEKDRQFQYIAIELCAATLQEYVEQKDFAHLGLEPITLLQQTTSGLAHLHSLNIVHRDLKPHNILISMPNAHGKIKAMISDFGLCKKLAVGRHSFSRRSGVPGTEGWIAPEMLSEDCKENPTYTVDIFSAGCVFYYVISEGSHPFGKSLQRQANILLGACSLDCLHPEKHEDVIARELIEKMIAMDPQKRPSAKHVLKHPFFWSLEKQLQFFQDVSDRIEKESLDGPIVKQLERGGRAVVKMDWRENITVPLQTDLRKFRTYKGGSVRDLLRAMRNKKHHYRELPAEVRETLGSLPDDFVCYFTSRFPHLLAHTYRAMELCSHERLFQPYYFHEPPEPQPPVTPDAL
UniProt O14983: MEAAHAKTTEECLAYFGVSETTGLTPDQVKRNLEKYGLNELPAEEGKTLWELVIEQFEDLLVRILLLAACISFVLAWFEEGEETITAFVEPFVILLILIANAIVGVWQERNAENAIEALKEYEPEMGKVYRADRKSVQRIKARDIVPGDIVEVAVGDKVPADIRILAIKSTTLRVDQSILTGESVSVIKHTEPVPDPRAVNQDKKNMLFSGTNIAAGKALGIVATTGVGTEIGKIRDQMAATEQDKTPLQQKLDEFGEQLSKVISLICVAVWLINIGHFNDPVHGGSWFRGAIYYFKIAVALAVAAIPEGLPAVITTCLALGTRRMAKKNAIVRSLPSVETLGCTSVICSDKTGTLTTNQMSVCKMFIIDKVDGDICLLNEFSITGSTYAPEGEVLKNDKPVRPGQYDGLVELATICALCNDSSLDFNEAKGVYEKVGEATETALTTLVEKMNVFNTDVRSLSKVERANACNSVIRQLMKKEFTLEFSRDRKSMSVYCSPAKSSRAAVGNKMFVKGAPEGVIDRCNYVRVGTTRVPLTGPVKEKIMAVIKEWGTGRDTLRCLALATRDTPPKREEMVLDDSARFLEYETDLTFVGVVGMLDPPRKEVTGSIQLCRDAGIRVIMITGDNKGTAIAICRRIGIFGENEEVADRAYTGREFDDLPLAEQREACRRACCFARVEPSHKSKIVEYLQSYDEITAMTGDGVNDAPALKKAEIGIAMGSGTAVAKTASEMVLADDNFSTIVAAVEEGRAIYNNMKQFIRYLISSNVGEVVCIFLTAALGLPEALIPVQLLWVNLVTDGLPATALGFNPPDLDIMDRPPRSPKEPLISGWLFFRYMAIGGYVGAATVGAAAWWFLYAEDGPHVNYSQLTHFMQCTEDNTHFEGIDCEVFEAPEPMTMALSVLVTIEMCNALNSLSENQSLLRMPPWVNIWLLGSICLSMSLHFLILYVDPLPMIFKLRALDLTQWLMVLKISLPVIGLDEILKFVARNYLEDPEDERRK
UniProt Q8R429: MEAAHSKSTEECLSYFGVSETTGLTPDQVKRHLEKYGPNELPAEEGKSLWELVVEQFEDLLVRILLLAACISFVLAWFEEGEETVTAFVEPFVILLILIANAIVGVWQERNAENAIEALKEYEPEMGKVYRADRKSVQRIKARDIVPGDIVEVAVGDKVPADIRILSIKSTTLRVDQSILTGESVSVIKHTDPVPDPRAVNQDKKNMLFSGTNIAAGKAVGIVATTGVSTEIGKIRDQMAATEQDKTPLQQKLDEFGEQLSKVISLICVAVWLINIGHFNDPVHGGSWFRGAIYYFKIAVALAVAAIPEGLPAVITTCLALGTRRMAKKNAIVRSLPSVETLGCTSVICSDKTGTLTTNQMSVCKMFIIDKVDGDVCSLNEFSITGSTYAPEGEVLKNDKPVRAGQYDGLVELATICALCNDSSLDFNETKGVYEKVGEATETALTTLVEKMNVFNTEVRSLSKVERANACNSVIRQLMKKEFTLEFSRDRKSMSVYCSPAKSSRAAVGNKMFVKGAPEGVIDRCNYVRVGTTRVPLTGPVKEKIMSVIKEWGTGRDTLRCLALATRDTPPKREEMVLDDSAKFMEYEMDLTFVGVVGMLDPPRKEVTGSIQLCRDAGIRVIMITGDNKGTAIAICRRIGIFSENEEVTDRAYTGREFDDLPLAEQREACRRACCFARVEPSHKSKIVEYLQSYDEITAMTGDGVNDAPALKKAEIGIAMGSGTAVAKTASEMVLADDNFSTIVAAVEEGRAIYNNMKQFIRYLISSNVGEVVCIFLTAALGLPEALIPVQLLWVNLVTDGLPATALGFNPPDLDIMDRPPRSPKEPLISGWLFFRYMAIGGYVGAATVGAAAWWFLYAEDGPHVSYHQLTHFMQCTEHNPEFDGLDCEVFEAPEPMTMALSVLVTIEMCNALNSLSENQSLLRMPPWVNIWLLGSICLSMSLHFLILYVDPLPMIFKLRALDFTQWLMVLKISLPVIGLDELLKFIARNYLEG
UniProt Q15629: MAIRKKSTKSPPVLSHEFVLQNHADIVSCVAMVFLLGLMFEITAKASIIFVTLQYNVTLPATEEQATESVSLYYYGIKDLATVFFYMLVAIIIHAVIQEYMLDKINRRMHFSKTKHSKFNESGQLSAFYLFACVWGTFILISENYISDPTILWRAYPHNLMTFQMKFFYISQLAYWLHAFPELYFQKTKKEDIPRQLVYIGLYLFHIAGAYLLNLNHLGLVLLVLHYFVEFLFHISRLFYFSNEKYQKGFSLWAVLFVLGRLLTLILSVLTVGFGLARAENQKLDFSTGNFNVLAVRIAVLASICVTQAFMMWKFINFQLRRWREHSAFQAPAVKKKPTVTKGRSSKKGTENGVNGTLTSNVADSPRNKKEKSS

Assay [1] has as its target Tripeptidyl peptidase II (TPP2) (human (endogenous in 293T)) (UniProt P29144). Description: proximity ligation; Duolink in situ PLA on fixed, permeabilised 293T cells, endogenous proteins; wild-type cells, with TPP2-, ATF6-, IRE1-, PERK- or CEPT1-knockout cells and TG, XeC, PC or CCTα-KDEL treatments as comparisons.
Assay [2] addresses TPP2 S449A (stably expressed in TPP2 knockout 293T cells) (UniProt P29144). Briefly: co-IP; co-IP with immunoblot from 293T cell lysates (wild-type cells and TPP2 knockout clones expressing TPP2 S449A or S449T); lysis buffer 50 mM Tris-HCl pH 7.4, 1% Triton X-100, 1% n-octyl β-D-glucopyranoside, 0.1% SDS, 1 mM EDTA, 150 mM NaCl; antibody on protein G agarose, 2 h at 4°C.
The target of assay [3] is TPP2 S449T (stably expressed in TPP2 knockout 293T cells) (UniProt P29144). Described as above.
Assay [4] has as its target Tripeptidyl peptidase II (TPP2) (human (endogenous in 293T)) (UniProt P29144). Described as above.
Assay [5] deals with inositol 1,4,5-triphosphate receptor (IP3R1), mouse (mouse (endogenous in hippocampal neurons and hippocampus)) (UniProt P11881). Description: proximity ligation; Duolink in situ PLA on DIV10 mouse primary hippocampal neurons, endogenous proteins; wild-type neurons, female shown, with TPP2 knockout and male neurons as comparisons.
For assay [6], the target named is T1, rat CYP19A1-Flag (aromatase) (rat) (UniProt P22443).
T1 sequence: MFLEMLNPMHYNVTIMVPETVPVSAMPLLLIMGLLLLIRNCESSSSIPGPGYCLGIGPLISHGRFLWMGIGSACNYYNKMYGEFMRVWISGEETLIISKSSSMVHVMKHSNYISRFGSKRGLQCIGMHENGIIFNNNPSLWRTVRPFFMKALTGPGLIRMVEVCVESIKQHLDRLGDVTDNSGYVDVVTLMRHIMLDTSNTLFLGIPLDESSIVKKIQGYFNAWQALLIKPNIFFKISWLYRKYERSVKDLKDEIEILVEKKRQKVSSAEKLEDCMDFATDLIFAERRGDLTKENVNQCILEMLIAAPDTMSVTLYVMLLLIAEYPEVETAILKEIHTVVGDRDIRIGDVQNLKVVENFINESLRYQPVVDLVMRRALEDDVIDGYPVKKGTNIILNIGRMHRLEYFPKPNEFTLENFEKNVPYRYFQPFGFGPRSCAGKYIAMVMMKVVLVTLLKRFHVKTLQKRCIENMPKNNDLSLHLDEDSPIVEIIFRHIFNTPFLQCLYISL
Description: condition: only in TPP2/ATF6 double knockout 293T cells; proximity ligation; Duolink in situ PLA of aromatase in TPP2/ATF6 double knockout 293T cells.

For assay [7], the target named is T1, rat CYP19A1-Flag (aromatase) (rat). Description: proximity ligation; Duolink in situ PLA of aromatase with UPS-related or autophagy-related proteins in WT and TPP2 knockout 293T cells.
For assay [8], the target named is Tripeptidyl peptidase II (TPP2), mouse (mouse (endogenous in hippocampal neurons and hippocampus)) (UniProt Q64514). Description: co-IP; co-IP with immunoblot from mouse hippocampus (P30) homogenate; same lysis buffer; antibody on protein G agarose, 2 h at 4°C. A general note: In western blotting, separated proteins are transferred to a membrane and probed.
Assay [9] deals with TPP2 S449T (ectopically expressed in TPP2 knockout mouse hippocampal neurons) (UniProt P29144). Briefly: proximity ligation; Duolink in situ PLA on TPP2 knockout mouse hippocampal neurons ectopically expressing TPP2 S449A, S449T or the C terminal domain-deleted mutant.
The target in assay [10] is truncated TPP2 mutant with deletion of its conserved C domain (AA 508-1249) (UniProt P29144). Described as above.
The target of assay [11] is TPP2 S449A (ectopically expressed in TPP2 knockout mouse hippocampal neurons) (UniProt P29144). The description is as above.
Assay [12] has as its target Tripeptidyl peptidase II (TPP2), mouse (mouse (endogenous in hippocampal neurons and hippocampus)) (UniProt Q64514). Description: proximity ligation; Duolink in situ PLA on DIV10 mouse primary hippocampal neurons, endogenous proteins; wild-type neurons, female shown, with TPP2 knockout and male neurons as comparisons.
The target of assay [13] is Activating transcription factor 6 (ATF6), mouse (mouse (endogenous in hippocampal neurons and hippocampus)) (UniProt F6VAN0). Description: condition: only in wild-type female mouse hippocampus (TPP2 present); co-IP; co-IP of ATF6 with immunoblot, wild-type female mouse hippocampus (TPP2 present).
Assay [14] has the same target. Briefly: co-IP; co-IP of ATF6 with immunoblot, female mouse hippocampus, WT and TPP2 knockout (p62, SEL1L and aromatase only in TPP2 knockout).
Assay [15] has as its target T2, rat CYP19A1 S118A-Flag (rat) (UniProt P22443).
T2 sequence: T1 sequence with S118A
Description: proximity ligation; Duolink in situ PLA on TPP2 knockout 293T cells 24h after transfection with CYP19A1-FLAG or CYP19A1-S118A-FLAG expressing vector.

Assay [16] concerns the target T1, rat CYP19A1-Flag (aromatase) (rat). The assay is described as above.
Assay [17] has the same target. Description: co-IP; co-IP of aromatase with immunoblot, WT and TPP2 knockout 293T cells.
Assay [18] has as its target Activating transcription factor 6 (ATF6) (human (endogenous in 293T)) (UniProt P18850). Briefly: co-IP; co-IP of ATF6 with immunoblot, WT and TPP2 knockout 293T cells 48h after transfection with CYP19A1-FLAG expressing vector (p62 only in TPP2 knockout cells).

Where a chain is given by its changes, count along the chain named. These are yes or no findings as the source states them, for the method shown. Binding seen in cells or lysates may run through a third protein. Some binding calls cover weakened binding; strength is not graded here. For some of these results: Tags and fused reporters may be left off the sequences shown.

As to “Activating transcription factor 6 (ATF6) (from UniProt P18850 1-670)”, the binding entry in assay [1], in assay [2], in [3] and in [4] was “binds” in each case.

For “Inositol-requiring enzyme 1 (IRE1) (from UniProt O75460 19-977)”, the binding result in [1], in assay [2], in assay [3] and in assay [4] was “binds” each time.

For the molecule “calreticulin (CALR), mouse (from UniProt P14211 18-416)”, the binding result in assay [5] is reported as “binds”.

Regarding “family with sequence similarity 134, member B (FAM134B/JK-1/RETREG1) (from UniProt Q9H6L5 1-497)”, the binding result in assay [6] is “no binding”; in [7], “binds”.

On to “inositol 1,4,5-triphosphate receptor (IP3R1), mouse (from UniProt P11881 1-2749)”, for which the binding result was “binds” in [8]; “binds” in assay [9]; “no binding” in assay [10]; “binds” in assay [11]; “binds” in [12].

Consider “proteasome 26S subunit, ATPase 4 (PSMC4) (from UniProt P43686 1-418)”, for which, in assay [7], the binding entry is “binds”.

Regarding “sarcoendoplasmic reticulum Ca^2+ ATPase (SERCA1) (from UniProt O14983 1-1001)”, the binding result in assay [1], in assay [2], in assay [3] and in assay [4] was “binds” each time.

Turning to “sarcoendoplasmic reticulum Ca^2+ ATPase (SERCA1), mouse (from UniProt Q8R429 1-994)”, the binding entry was “binds” in assay [8]; “binds” in assay [9]; “no binding” in [10]; “binds” in assay [11]; “binds” in assay [12].

With “suppressor/enhancer of Lin-12-like (SEL1L), mouse (from UniProt Q9Z2G6 22-790)”, the binding entry in assay [13] was “no binding”; in assay [14], “binds”.

As to “synoviolin (SYVN1/Hrd1) (from UniProt Q86TM6 1-617)”, the binding result is recorded as “binds” in assay [15], “binds” in [16], “no binding” in assay [6] and “binds” in assay [7].

Turning to “translocating chain-associated membrane protein 1 (TRAM1) (from UniProt Q15629 1-374)”, the binding entry is reported as “binds” in [17], “no binding” in assay [6] and “binds” in [7].

Consider “ubiquitin carboxy-terminal hydrolase l1 (UCHL1/PGP 9.5), mouse (from UniProt Q9R0P9 1-223)”, for which the binding entry in [14] is given as “binds”.

Take “valosin-containing protein (VCP/p97) (from UniProt P55072 1-806)”: the binding entry is listed as “binds” in assay [18]; “binds” in assay [15]; “binds” in assay [16]; “no binding” in [6]; “binds” in [7].

Regarding “valosin-containing protein (VCP/p97), mouse (from UniProt Q01853 1-806)”, the binding entry in [14] was “binds”.

B1: B-cell receptor-associated protein 31 (BAP31/BCAP31) (protein, UniProt P51572 1-246)
chain: MSLQWTAVATFLYAEVFVVLLLCIPFISPKRWQKIFKSRLVELLVSYGNTFFVVLIVILVLLVIDAVREIRKYDDVTEKVNLQNNPGAMEHFHMKLFRAQRNLYIAGFSLLLSFLLRRLVTLISQQATLLASNEAFKKQAESASEAAKKYMEENDQLKKGAAVDGGKLDVGNAEVKLEEENRSLKADLQKLKDELASTKQKLEKAENQVLAMRKQSEGLTKEYDRLLEEHAKLQAAVDGPMDKKEE
Regarding B1, the binding result in [17] and in assay [7] was “binds” throughout.

B2: aromatase (CYP19A1), mouse (enzyme, UniProt P28649 1-503)
chain: MFLEMLNPMQYNVTIMVPETVTVSAMPLLLIMGLLLLIWNCESSSSIPGPGYCLGIGPLISHGRFLWMGIGSACNYYNKMYGEFMRVWISGEETLIISKSSSMFHVMKHSHYISRFGSKRGLQCIGMHENGIIFNNNPSLWRTIRPFFMKALTGPGLVRMVEVCVESIKQHLDRLGEVTDTSGYVDVLTLMRHIMLDTSNMLFLGIPLDESAIVKKIQGYFNAWQALLIKPNIFFKISWLYRKYERSVKDLKDEIAVLVEKKRHKVSTAEKLEDCMDFATDLIFAERRGDLTKENVNQCILEMLIAAPDTMSVTLYFMLLLVAEYPEVEAAILKEIHTVVGDRDIKIEDIQNLKVVENFINESMRYQPVVDLVMRRALEDDVIDGYPVKKGTNIILNIGRMHRLEYFPKPNEFTLENFEKNVPYRYFQPFGFGPRGCAGKYIAMVMMKVVLVTLLRRFQVKTLQKRCIENIPKKNDLSLHPNEDRHLVEIIFSPRNSDKYLQQ
Take B2: the binding result in assay [13] is given as “no binding”; in [14], “binds”.
